From publication PMC13448985
Results are given in words; binding and its absence hold for the method and conditions named. Binding seen in cells or lysates may run through a third protein. Some results given as binding are weak or reduced against the parent protein; the word gives no strength.

Amino acid sequences for entries named in this document (tags omitted).
UniProt Q8K4Q0: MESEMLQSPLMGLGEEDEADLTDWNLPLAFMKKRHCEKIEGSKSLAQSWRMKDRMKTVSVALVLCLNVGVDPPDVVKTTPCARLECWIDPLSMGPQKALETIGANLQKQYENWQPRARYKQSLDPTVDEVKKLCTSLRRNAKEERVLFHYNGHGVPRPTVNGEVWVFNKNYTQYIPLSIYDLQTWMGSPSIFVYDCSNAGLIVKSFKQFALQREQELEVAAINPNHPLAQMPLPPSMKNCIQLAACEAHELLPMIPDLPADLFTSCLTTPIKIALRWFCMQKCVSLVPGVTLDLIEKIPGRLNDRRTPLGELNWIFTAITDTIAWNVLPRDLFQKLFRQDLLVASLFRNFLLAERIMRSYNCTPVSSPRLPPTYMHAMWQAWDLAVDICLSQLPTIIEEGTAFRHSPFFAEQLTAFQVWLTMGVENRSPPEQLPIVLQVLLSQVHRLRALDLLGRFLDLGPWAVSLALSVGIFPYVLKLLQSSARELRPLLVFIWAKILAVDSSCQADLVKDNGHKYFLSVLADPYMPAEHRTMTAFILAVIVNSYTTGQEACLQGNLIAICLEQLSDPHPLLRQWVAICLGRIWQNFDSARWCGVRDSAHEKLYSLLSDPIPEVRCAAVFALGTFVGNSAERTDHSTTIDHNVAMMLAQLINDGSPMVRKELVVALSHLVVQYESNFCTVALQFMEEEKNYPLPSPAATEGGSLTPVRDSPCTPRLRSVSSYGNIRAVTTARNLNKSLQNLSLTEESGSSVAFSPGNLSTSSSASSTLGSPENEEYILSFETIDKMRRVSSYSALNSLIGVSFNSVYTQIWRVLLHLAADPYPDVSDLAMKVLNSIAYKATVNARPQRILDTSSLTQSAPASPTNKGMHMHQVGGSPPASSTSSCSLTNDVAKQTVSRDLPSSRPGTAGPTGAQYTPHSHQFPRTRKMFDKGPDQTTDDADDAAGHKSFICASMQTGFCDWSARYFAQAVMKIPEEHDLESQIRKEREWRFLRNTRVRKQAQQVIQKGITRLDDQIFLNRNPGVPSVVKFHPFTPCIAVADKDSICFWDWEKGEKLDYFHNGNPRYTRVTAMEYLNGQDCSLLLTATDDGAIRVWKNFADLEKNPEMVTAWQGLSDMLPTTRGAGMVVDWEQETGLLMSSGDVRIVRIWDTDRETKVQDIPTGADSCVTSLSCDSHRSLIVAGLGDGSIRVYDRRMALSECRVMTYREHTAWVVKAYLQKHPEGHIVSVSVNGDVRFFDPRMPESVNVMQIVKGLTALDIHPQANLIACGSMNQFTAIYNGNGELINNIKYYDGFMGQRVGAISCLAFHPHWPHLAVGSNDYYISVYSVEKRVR

Molecular target: T1, natriuretic peptide receptor 3 (NPR3) (mouse (endogenous in primary VSMCs of C57BL/6J mice)) (UniProt P70180)
T1 sequence: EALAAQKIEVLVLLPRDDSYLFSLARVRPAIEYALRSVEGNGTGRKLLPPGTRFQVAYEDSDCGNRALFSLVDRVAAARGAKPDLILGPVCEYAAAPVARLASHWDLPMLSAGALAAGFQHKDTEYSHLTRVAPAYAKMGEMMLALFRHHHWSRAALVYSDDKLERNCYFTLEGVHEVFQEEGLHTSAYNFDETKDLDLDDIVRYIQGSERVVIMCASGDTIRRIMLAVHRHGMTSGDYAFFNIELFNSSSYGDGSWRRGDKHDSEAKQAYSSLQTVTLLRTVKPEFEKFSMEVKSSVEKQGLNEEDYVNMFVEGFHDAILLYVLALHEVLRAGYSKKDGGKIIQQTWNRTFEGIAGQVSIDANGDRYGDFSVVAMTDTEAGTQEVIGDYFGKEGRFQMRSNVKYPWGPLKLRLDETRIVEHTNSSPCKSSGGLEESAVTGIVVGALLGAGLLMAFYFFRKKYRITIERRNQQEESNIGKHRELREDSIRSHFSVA
Test: co-IP; lysates of primary mouse VSMCs stimulated with PDGF-BB (30 ng/mL), treated with or without Musclin (50 nM, 24 h), with or without Npr3 siRNA; IP and input blotted with anti-NPR3 and anti-raptor antibodies; which antibody precipitated is not stated

Q: How did the binding turn out when raptor (from UniProt Q8K4Q0 1-1335) was run?
A: binds
